PubChem BioAssay AID652243 | Drosophila RNAi Screening Center, 2013

Aim: 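Fly genes required for human androgen receptor driven transcription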 (primary screen)
System: Drosophila S2R+ cells
Knock-down reagent: long dsRNA against Drosophila genes
Duration: 72 h (48 h, then 24 h hormone)
Treatment: synthetic androgen R1881 at 10 nM for 24 h
Measurement: 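Per-well raw luminescence of the androgen-driven firefly reporter and of the Renilla control, two replicates each, without normalisation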
Scale: firefly reporter light: higher = more light from androgen-responsive reporter; Renilla control light: higher = more constitutive control signal (cell number, transfection)
Call rule: 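Across duplicate plates, a knock-down whose log firefly/Renilla ratio shifted a set fold down or up from the GFP/LacZ control mean was a hit; the downward cut appears as both 1.5 and 3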
Meaning of the calls: active = hit: reporter lowered or raised; inactive = no hit
The deposit covers about 24,000 reagents; this is an unselected part of those with a known target gene and a result. Of all reagents, 246 (1%) got an active call. 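Plates not normalised; calls are printed but the firefly/Renilla ratio behind them is not deposited; fold cut for lowering reported inconsistently.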 Raw values are not corrected between plates. The record does not give: the amount of reagent.

For CG15764 (GeneID 31516) [SID104197862] the deposit lists firefly reporter light, replicate 1 = 2.73e5; firefly reporter light, replicate 2 = 2.69e5; Renilla control light, replicate 1 = 3.05e6; Renilla control light, replicate 2 = 2.79e6; inactive.
CG15764 (GeneID 31516) [SID104204299] scored firefly reporter light, replicate 1 = 8.83e5; firefly reporter light, replicate 2 = 6.65e5; Renilla control light, replicate 1 = 9.16e5; Renilla control light, replicate 2 = 7.35e5; inactive.
For fwd (GeneID 45374) [SID104188372] the deposit lists firefly reporter light, replicate 1 = 1.02e6; firefly reporter light, replicate 2 = 1.33e6; Renilla control light, replicate 1 = 1.15e6; Renilla control light, replicate 2 = 1.33e6; inactive.
With knock-down of fwd (GeneID 45374) [SID104205224], the record shows firefly reporter light, replicate 1 = 3.40e5; firefly reporter light, replicate 2 = 3.28e5; Renilla control light, replicate 1 = 9.85e5; Renilla control light, replicate 2 = 9.62e5; inactive.
Depletion of fwd (GeneID 45374) [SID104214212] gave: inactive.
Silencing of fwd (GeneID 45374) [SID104214213] resulted in: inactive.
With knock-down of Pp1-Y2 (GeneID 3355173) [SID104201310], the screen gave firefly reporter light, replicate 1 = 1.01e6; firefly reporter light, replicate 2 = 1.14e6; Renilla control light, replicate 1 = 4.76e5; Renilla control light, replicate 2 = 7.84e5; inactive.
With knock-down of Pp1-Y2 (GeneID 3355173) [SID104216858] the results were inactive.
eff (GeneID 41785) [SID104196732] showed firefly reporter light, replicate 1 = 1.72e5; firefly reporter light, replicate 2 = 1.55e5; Renilla control light, replicate 1 = 2.25e6; Renilla control light, replicate 2 = 1.62e6; inactive.
Against eff (GeneID 41785) [SID104215958] the deposit lists firefly reporter light, replicate 1 = 7.46e5; firefly reporter light, replicate 2 = 6.15e5; Renilla control light, replicate 1 = 2.35e6; Renilla control light, replicate 2 = 1.71e6; inactive.
Nf-YA (GeneID 39091) [SID104202483] scored firefly reporter light, replicate 1 = 4.13e5; firefly reporter light, replicate 2 = 6.37e5; Renilla control light, replicate 1 = 5.80e5; Renilla control light, replicate 2 = 8.23e5; inactive.
CG12499 (GeneID 42637) [SID104194313] scored firefly reporter light, replicate 1 = 3.51e5; firefly reporter light, replicate 2 = 2.55e5; Renilla control light, replicate 1 = 3.33e6; Renilla control light, replicate 2 = 3.15e6; inactive.
